Laboratory results as given in patent publication US6355611B1, “Salt form of a conjugate useful in the treatment of prostate cancer” (Merck & Co., Inc., priority 1999, dated 2002).
Part of at least one peptide drawing is inferred or uncertain, most often the ends. At least one compound was matched to its structure with a doubt left. Starred links: 1 amine or outer side, 2 acyl side, 3 side chain; linkers in the order of their positions; H or OH if unused. Non-standard residues stand in square brackets, D forms with d. Residues, ends and D or L forms follow the SMILES beside them. *: point of attachment. X1 = COc1cccc2c1C(=O)c1c(O)c3c(c(O)c1C2=O)C[C@@](O)(C(=O)CO)C[C@@H]3OC1CC(N*)C(O)C(C)O1; Glutaryl = O=C(CCCC(=O)[*:2])[*:1]; Hyp = O=C(O)[C@@H]1C[C@@H](O)CN1; Chg = N[C@H](C(=O)O)C1CCCCC1

How the values were obtained:
pH of aqueous solution = format: physicochemical; settings: unbuffered aqueous solution
Text: An aqueous solution of the sodium salt of the instant invention has a pH of greater than 5.0. It has been discovered that the bond between the sugar moiety of doxorubicin and the tetracyclic doxorubicinone moiety is more readily cleaved at aqueous pH of less than 4.0. Therefore the sodium salt offers clear formulation advantages over the free acid, which has an unbuffered aqueous pH of less than 4.0.

[1] = Aggregate formation on dissolution in water (filtration through 0.22μ filter); format: physicochemical
Text: It has further been discovered that the sodium salt of the Formula 5 offers advantages with respect to dissolution in water.

COc1cccc2c1C(=O)c1c(O)c3c(c(O)c1C2=O)C[C@@](O)(C(=O)CO)C[C@@H]3OC1CC(NC(=O)[C@H](CC(C)C)NC(=O)[C@H](CO)NC(=O)[C@H](CCC(N)=O)NC(=O)[C@@H](NC(=O)[C@H](CO)NC(=O)[C@H](C)NC(=O)[C@@H]2C[C@@H](O)CN2C(=O)CCCC(=O)O)C2CCCCC2)C(O)C(C)O1 (stereo partly drawn) [Compound 4, [N-Glutaryl-(4-trans-L-Hyp)]-Ala-Ser-Chg-Gln-Ser-Leu-Dox] (Glutaryl-[Hyp]AS[Chg]QSL-X1)
pH of aqueous solution (pH of aqueous solution): less than 4.0 | formation of aggregates on dissolution in water [1]: formation of aggregates hinders the filtration
